Drawing on PubChem BioAssay AID651647 (Sanford-Burnham Center for Chemical Genomics, 2012), this text covers RFP signal change for 58 compounds.

This is one part of the list.

This test in a line: MT1-MMP activation inhibitors, cellular reporter – HT1080 RFP-PRO-GFP cells, GFP/RFP fluorescence, primary screen (AID 651647). Conditions: GFP/RFP ratio fluorescence, overnight, RFP expression control read, at 20 µM. In outline: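 Assay system: HT1080 cells carrying an RFP-PRO-GFP reporter | Dosing: Single dose of 20 µM compound, 1% DMSO final | Incubation: Cells overnight before dosing, compound overnight, 37 °C, 5% CO2 | Evaluation: GFP/RFP fluorescence ratio | Control set: DMSO and RFP-L50D-GFP cell wells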
Regarding `CC(C)NC(=O)NP(=O)(Oc1ccccc1)Oc1ccccc1`, the RFP signal change was found to be 2.27%.

As for `O=[N+]([O-])c1cc([N+](=O)[O-])c(-c2ccn[nH]2)s1`, the RFP signal change is -7.27%.

In the case of `COc1ccc(OP(C)(=O)Nc2cccc(F)c2)cc1` (stereo not drawn), the RFP signal change is -0.463%.

As for `Cc1cc(C)cc(OP(C)(N)=O)c1` (stereo not drawn), the RFP signal change came out at 1%.

With `CCOC(=O)c1ccc(NP(C)(=O)Oc2ccccc2)cc1` (stereo not drawn), the RFP signal change is -1.89%.

Turning to `ClCCSc1nnc(-c2cccnc2)o1`, the RFP signal change is -0.76%.

On to `COc1ccccc1OP(C)(=O)Nc1ccc(C)cc1` (stereo not drawn), for which the RFP signal change turned out to be 1.17%.

With `Cc1ccc(NP(C)(=O)Oc2ccccc2)c(C)c1` (stereo not drawn), the RFP signal change is 3.95%.

For `COC(=O)C1(C)COP(=O)(N2CCCCCC2)OC1` (stereo not drawn), the RFP signal change is 0.774%.

As to `CC(C)(C)c1ccc(OP(C)(=O)Nc2ccc(SC(F)(F)F)cc2)cc1` (stereo not drawn), the RFP signal change was -8.54%.

On to `[N-]=[N+]=NC1CCCCC1NC(=O)c1cc([N+](=O)[O-])cc([N+](=O)[O-])c1` (stereo not drawn), for which the RFP signal change stood at 1.57%.

Take `Cc1ccc(OP(=O)(Nc2ccc([N+](=O)[O-])cn2)Oc2ccc(C)cc2)cc1`: the RFP signal change is -4.67%.

With `Cc1cccc(C)c1OP(C)(N)=O` (stereo not drawn), the RFP signal change stood at 10%.

Turning to `Cc1ccc2nc3c(c(C)c2c1)CC(C(Cl)Cl)S3` (stereo not drawn), the RFP signal change is -1.53%.

Regarding `O=[N+]([O-])c1ccc2c(c1)C=Nc1ccccc1O2`, the RFP signal change is -8.9%.

Consider `O=[N+]([O-])c1cc([N+](=O)[O-])c(Nc2cccnc2)c([N+](=O)[O-])c1`, for which the RFP signal change is -2.17%.

As for `C[As](=O)(O)c1cccc(C(=O)O)c1`, the RFP signal change was 1.68%.

In the case of `O=[As](O)(c1ccc(O)cc1)c1ccccc1O`, the RFP signal change was found to be 1.01%.

As to `COc1cc(C(=O)NCC2(N3CCOCC3)CCCCC2)ccc1OCC(C)C`, the RFP signal change is -0.567%.

On to `O=[N+]([O-])c1ccc(-c2cc([N+](=O)[O-])c(O)c([N+](=O)[O-])c2)cc1`, for which the RFP signal change was -2.27%.

`O=[N+]([O-])c1cc(Oc2ccc([N+](=O)[O-])cc2C(F)(F)F)cc([N+](=O)[O-])c1`: the RFP signal change was -2.36%.

Regarding `COc1ccc(N/C(=N/P(=O)(N2CCOCC2)N2CCOCC2)N2CCOCC2)cc1`, the RFP signal change amounted to 0.991%.

`COc1ccccc1-c1ccccn1.O=[N+]([O-])c1cc([N+](=O)[O-])c(O)c([N+](=O)[O-])c1`: the RFP signal change was 6.52%.

With `O=P1(N(CCCl)CCCl)Nc2ccccc2N1`, the RFP signal change was -1.34%.

On to `O=P1(N(CCCl)CCCl)OCCCN1CCCl` (stereo not drawn), for which the RFP signal change was determined as 4.17%.

Turning to `COc1ccc2nc(NP(=O)(c3ccccc3)c3ccccc3)sc2c1`, the RFP signal change is 2.49%.

As to `COc1cc(I)ccc1[As](=O)(O)O`, the RFP signal change is 8.96%.

Turning to `Cc1c2c(nc3ccccc13)SC(C(Cl)Cl)C2` (stereo not drawn), the RFP signal change is -3.38%.

On to `O=C(OC1CN2CCC1CC2)C12CC3CC(CC(C3)C1)C2` (stereo not drawn), for which the RFP signal change is 4.68%.

In the case of `Cc1cc(=O)[nH]c(N[N+](=O)[O-])n1`, the RFP signal change was found to be 4.6%.

Turning to `CCN(CC)CCCOC(=O)C(O)(c1ccccc1)c1ccccc1`, the RFP signal change amounted to 1.47%.

For the compound `CCOP(=O)(Nc1cccc2ccccc12)OCC`, the RFP signal change is 2.96%.

As for `CP(=O)(Nc1cccc(Br)c1)Oc1ccccc1` (stereo not drawn), the RFP signal change was -4.61%.

With `Cc1cc(C)cc(OP(C)(=O)Nc2ccccn2)c1` (stereo not drawn), the RFP signal change is -0.348%.

Consider `Cc1ccc(NCCc2c([N+](=O)[O-])cc([N+](=O)[O-])cc2[N+](=O)[O-])cc1`, for which the RFP signal change stood at 16.4%.

On to `Nc1cccc2c([As](=O)(O)O)cccc12`, for which the RFP signal change was found to be 14.2%.

On to `CCCOP(=S)(Nc1nc(N)cc(=O)[nH]1)OCCC`, for which the RFP signal change was determined as 0.149%.

Regarding `Cc1ccc(C)c(NP(C)(=O)Oc2ccccc2)c1` (stereo not drawn), the RFP signal change is -1.76%.

With `O=[As](O)(c1cccc(O)c1)c1cccc(O)c1`, the RFP signal change is 3.43%.

Turning to `Cc1cccc(OCC(=O)OC2CN3CCC2CC3)c1` (stereo not drawn), the RFP signal change came to 0.652%.

Regarding `Cc1cc(C)cc(OP(C)(=O)Nc2ccc(C)cc2C)c1` (stereo not drawn), the RFP signal change worked out at 0.368%.

For `CCOC(=O)c1ccc(NP(C)(=O)Oc2cc(C)cc(C)c2)cc1` (stereo not drawn), the RFP signal change turned out to be 0.633%.

For `O=C(OC1CN2CCC1CC2)c1ccc(Cl)cc1` (stereo not drawn), the RFP signal change came to 3.36%.

For `COc1cc(C(=O)NCC2(N3CCOCC3)CCCCC2)cc(Cl)c1OC(C)C`, the RFP signal change is -7.85%.

With `O=[As](O)(O)c1cccnc1`, the RFP signal change turned out to be 4.31%.

With `COc1ccccc1OP(C)(=O)Nc1cccc(Br)c1` (stereo not drawn), the RFP signal change was found to be 0.502%.

Take `CS(=O)(=O)c1ccc(Cl)c(NC(=O)COC(=O)C(O)(c2ccccc2)c2ccccc2)c1`: the RFP signal change was 1.85%.

`N#CCCN(C(=O)COC(=O)C(O)(c1ccccc1)c1ccccc1)c1ccc(F)cc1`: the RFP signal change was -1.51%.

Consider `CN(C(=O)Cc1ccccc1)[C@@H]1CC[C@]2(CCCO2)C[C@H]1N1CCCC1`, for which the RFP signal change stood at 3.83%.

`CCOP1(=S)c2c(C)nn(CCC#N)c2N=C(c2ccc(F)cc2)N1C` (stereo not drawn): the RFP signal change was found to be 1.33%.

Take `CN(C)C(=O)c1cc([N+](=O)[O-])cc2c1-c1c(cc([N+](=O)[O-])cc1[N+](=O)[O-])C2=O`: the RFP signal change is -6.81%.

On to `O=[N+]([O-])c1ccc2c(c1)nnn2O`, for which the RFP signal change was determined as 2.89%.

On to `CN(C(=O)Cc1ccc(Cl)c(Cl)c1)[C@H]1CC[C@@]2(CCCO2)C[C@@H]1N1CCCC1`, for which the RFP signal change turned out to be 7.13%.

For `CC1=NCCc2c1[nH]c1ccccc21.O=[N+]([O-])c1cc([N+](=O)[O-])c(O)c([N+](=O)[O-])c1`, the RFP signal change turned out to be 5.82%.

In the case of `NC(=O)Nc1ccc([As](=O)(O)O)cc1`, the RFP signal change was found to be 1.48%.

Consider `Nc1ccccc1[As](=O)(O)c1ccccc1`, for which the RFP signal change was 1.7%.

Take `O=C(O)COc1ccc([As](=O)(O)O)cc1[N+](=O)[O-]`: the RFP signal change came to 0.257%.

On to `CCOP1(=S)c2c(C)nn(CCC#N)c2N=C(c2ccccc2F)N1C` (stereo not drawn), for which the RFP signal change was -4.91%.
